Source: PMC12489035

The chains behind the UniProt entries cited, without tags or fusion partners. Residues count along the entry.
UniProt P05067, residues 724-770: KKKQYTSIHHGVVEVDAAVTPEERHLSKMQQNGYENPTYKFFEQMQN

Molecular target: GST fused to the WT cytosolic tail of APP (649-695) (UniProt P05067)
Test: affinity purification with mass spectrometry; GST-APP tail (or GST only) on glutathione-Sepharose beads, incubated overnight at 4 °C with pre-cleared HEK293T lysate in 50 mM Tris pH 7.4, 150 mM NaCl, 1 mM EDTA, 5 mM 2-mercaptoethanol, 1% triton-X100; eluted with […] NaCl; LC-MS/MS; three independent experiments; only the target purified

binding: binds
B1: cold-inducible RNA-binding protein (CIRBP) (protein, UniProt Q14011 1-172)
chain: MASDEGKLFVGGLSFDTNEQSLEQVFSKYGQISEVVVVKDRETQRSRGFGFVTFENIDDAKDAMMAMNGKSVDGRQIRVDQAGKSSDNRSRGYRGGSAGGRGFFRGGRGRGRGFSRGGGDRGYGGNRFESRSGGYGGSRDYYSSRSQSGGYSDRSSGGSYRDSYDSYATHNE

These are yes or no findings as the source states them, for the method shown. In cells and extracts the contact can be indirect. A yes stands for co-enrichment or nearness to the bait. Other partners may have been found.
